In PubChem BioAssay AID504834 (National Center for Advancing Translational Sciences (NCATS), 2011):
Among all 320,000 compounds or so, about 22,000 (6.9%) were called active. Inconclusive means that the source gave no clear call. Such entries were picked first, then a sample of the others. Calls come from the whole dose curve; as a rule, active = well fitted inhibition curve with a large enough effect; inconclusive = small, poorly fitted or top-dose-only effect, or another doubt; inactive = no such curve, though single readings can be large or run the other way. Where the call is inconclusive, the potency comes from a doubtful curve fit.

Test: Primary qHTS for delayed death inhibitors of the malarial parasite plastid, 96 hour incubation
Details: P. falciparum luciferase reporter growth; series mostly up to 28.7 µM; activity change, negative = inhibition: at the top concentration
Procedure, shortened: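 Two parasite generations (96 h, 37 C, 5% CO2) of compound exposure in infected erythrocytes (0.05% parasitemia, 2% hematocrit). Luciferase-reporter P. falciparum; decreased luminescence indicates inhibited growth, aimed at apicoplast-acting delayed death.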
% is set by controls: 0 for no effect and ±100 for the full control effect; potency is the fitted concentration of half-maximal effect.

SMILES	Potency	activity change, negative = inhibition
CC1(C)N=C(N)N=C(N)N1c1cccc(CN)c1	active: 0.928 µM	–
COc1ccccc1CNc1ncc(-c2ccccc2)n1C	–	inactive: -9.31%
COc1cccc(NC(=O)CN(C)C(=O)CC2CC3CCC2C3)c1 (configuration not stated)	inconclusive: 18.5 µM [inhibitor, partial curve, poor fit]	–
CCN(CC)CCNC(=O)C1c2cc(OC)c(OC)cc2C(=O)N2CCc3ccccc3C12 (configuration not stated)	inconclusive: 0.415 µM [inhibitor, full curve, poor fit]	–
O=C(/C=C/c1ccc(Br)cc1)c1ccc(NC2=NCCCS2)cc1	inconclusive: 18.5 µM [inhibitor, single point]	–
COc1ccccc1CNCC(=O)Nc1ccc(N(C)C)cc1	–	inactive: 100%
Cc1cccnc1NC(=O)c1sc2ccccc2c1Cl	–	inactive: 98.2%
CCn1nc(C)c(Br)c1-c1nc(CS(=O)(=O)c2ccsc2)no1	–	inactive: 49.7%
Cc1ccc(NC(=O)COc2ccc(C(=O)c3ccccc3)cc2)c(O)c1	inconclusive: 11.7 µM [inhibitor, partial curve]	–
COc1ccc(N2CCN(C(=O)c3cc4c(s3)CCCCC4)CC2)cc1	inconclusive: 8.28 µM [inhibitor, partial curve, poor fit]	–
O=C1c2ccccc2-c2onc3ccc(NCc4ccco4)c1c23	–	inactive: 24.8%
Cc1cccc(C)c1OCc1nc2ccccc2[nH]1	inconclusive: 9.28 µM [inhibitor, partial curve, poor fit]	–
CN(C)C(=O)C(=O)c1c(-c2ccccc2)cc2ccccn12	–	inactive: 8.77%
Cc1ccc2cc(CCNC(=O)C(C)C)c(=O)[nH]c2c1	–	inactive: 8.64%
CCc1nc2sc3c(=O)[nH]cnc3c2c2c1CSC(C)(C)C2	inconclusive: 1.65 µM [inhibitor, partial curve, poor fit]	–
COc1cccc(N2CCN(C(=O)c3ccc4nc(N5CCCCC5)sc4c3)CC2)c1	inconclusive: 10.4 µM [inhibitor, single point]	–
COCCNC(=S)N1CCN(S(=O)(=O)c2ccc(Cl)s2)CC1	inconclusive: 5.22 µM [inhibitor, partial curve]	–
CCn1cc(C(=O)N2CCc3ccccc32)c(=O)c2cc(S(=O)(=O)N3CCCC3)ccc21	active: 11.7 µM	–
CCNc1nc(NCC)nc(ON=C(C)C)n1	active: 2.08 µM	–
O=C(CNC1CCCC1)Nc1ccc(N2CCCCCC2)cc1	–	inactive: 21.6%
O=Nc1c(O)n(Cc2ccc(Cl)cc2)c2ccccc12	inconclusive: 10.4 µM [inhibitor, single point]	–
O=C(CSC1c2ccccc2-c2ccccc21)N/N=C/c1ccccc1O	inconclusive: 14.7 µM [inhibitor, single point]	–

Sorted by heavy-atom count (smallest number first): some entries from above.
SMILES	Potency	activity change, negative = inhibition
CN(C)C(=O)C(=O)c1c(-c2ccccc2)cc2ccccn12	–	inactive: 8.77%
O=C(CNC1CCCC1)Nc1ccc(N2CCCCCC2)cc1	–	inactive: 21.6%
COc1cccc(N2CCN(C(=O)c3ccc4nc(N5CCCCC5)sc4c3)CC2)c1	inconclusive: 10.4 µM [inhibitor, single point]	–
